# Assay results from PubChem BioAssay (EPA / NIEHS).
# By UniProt entry, the sequences of proteins in these tests, tags left out. Where a name states a change or a piece, a line headed by the entry shows the natural chain unless it says otherwise.
# UniProt P03372, whole entry, looked up: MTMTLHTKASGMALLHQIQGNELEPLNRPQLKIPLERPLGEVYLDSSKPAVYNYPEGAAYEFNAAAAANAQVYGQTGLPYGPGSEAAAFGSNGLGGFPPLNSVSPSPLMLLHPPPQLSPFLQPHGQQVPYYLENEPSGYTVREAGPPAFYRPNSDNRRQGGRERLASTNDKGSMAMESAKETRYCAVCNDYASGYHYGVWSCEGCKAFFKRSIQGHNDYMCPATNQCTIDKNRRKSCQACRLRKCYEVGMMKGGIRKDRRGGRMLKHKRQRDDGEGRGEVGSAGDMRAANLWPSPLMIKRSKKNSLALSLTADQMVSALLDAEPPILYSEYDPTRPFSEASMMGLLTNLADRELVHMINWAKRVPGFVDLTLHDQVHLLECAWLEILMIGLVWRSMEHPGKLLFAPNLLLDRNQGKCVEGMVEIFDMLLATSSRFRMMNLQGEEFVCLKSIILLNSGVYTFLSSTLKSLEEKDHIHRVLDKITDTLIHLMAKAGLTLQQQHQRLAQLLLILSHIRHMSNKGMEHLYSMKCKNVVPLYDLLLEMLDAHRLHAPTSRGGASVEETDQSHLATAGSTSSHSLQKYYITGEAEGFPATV
# UniProt P08659, whole entry, looked up: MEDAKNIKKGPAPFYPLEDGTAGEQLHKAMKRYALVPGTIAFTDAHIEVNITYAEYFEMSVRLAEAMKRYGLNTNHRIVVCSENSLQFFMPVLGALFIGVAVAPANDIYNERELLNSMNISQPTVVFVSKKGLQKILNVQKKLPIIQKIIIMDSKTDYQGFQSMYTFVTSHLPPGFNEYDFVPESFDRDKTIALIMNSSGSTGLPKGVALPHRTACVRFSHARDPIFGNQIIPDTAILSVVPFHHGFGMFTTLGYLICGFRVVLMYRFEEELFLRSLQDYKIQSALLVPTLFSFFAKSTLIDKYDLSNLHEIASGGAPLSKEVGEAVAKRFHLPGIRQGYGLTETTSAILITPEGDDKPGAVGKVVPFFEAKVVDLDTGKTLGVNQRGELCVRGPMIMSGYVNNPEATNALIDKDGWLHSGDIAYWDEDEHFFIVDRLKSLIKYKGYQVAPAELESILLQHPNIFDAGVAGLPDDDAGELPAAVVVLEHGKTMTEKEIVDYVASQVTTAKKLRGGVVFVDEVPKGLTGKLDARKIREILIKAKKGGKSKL
# UniProt P10275: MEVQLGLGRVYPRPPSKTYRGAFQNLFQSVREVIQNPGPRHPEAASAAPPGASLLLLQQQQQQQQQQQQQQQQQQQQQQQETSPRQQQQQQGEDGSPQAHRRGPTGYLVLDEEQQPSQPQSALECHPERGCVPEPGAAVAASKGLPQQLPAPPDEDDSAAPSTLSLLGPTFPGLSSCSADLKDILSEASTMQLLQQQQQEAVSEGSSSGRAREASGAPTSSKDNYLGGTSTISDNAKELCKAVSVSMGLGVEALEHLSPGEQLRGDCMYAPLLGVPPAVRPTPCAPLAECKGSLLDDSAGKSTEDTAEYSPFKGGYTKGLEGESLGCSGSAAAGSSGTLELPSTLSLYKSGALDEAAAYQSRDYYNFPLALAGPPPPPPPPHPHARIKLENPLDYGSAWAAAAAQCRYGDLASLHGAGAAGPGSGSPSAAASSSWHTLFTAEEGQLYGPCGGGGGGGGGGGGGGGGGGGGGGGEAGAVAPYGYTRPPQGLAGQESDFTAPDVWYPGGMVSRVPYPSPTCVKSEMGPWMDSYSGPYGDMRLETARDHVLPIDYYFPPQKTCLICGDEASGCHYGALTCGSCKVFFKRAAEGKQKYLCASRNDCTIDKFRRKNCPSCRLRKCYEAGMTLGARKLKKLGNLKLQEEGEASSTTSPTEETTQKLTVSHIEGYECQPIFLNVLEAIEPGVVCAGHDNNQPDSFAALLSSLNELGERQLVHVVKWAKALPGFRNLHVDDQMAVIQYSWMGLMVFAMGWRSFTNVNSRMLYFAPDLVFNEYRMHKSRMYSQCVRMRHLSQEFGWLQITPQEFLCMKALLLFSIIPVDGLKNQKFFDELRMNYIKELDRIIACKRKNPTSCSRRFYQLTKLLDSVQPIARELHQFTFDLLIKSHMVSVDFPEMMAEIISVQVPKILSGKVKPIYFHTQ
# Inconclusive results, whose numbers are uncertain, are shown with a selection of clear calls. For part of these data: A potency beside an inconclusive call is a rough fit, not a confirmed value. The source made the active and inactive calls. The calls were made as follows: active = hit-call score of the fitted dose curve at least 0.9, where 1 is the maximum; inconclusive = response in the unintended direction; inactive = score below 0.9.
# Assays:
# [1] = system: chicken Androgen Receptor (AR), gene 422165; assay: ATG_chAR_XSP1: Attagene TRANS-FACTORIAL Multi-Species (XSP1) HepG2 Assay for chicken Androgen Receptor (AR) (AID 2283768)
# Procedure, shortened: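 Reporter mRNA read by RT-PCR with fluorescent labelling and capillary electrophoresis 24 h after chemical dosing of transiently transfected HepG2 cells. Chicken AR-Gal4 chimera, partially stimulated with 3 nM 6-alpha-fluorotestosterone; activity fitted upward relative to DMSO.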
# [2] = system: frog Androgen Receptor (AR), gene 399456; assay: ATG_frAR_XSP1: Attagene TRANS-FACTORIAL Multi-Species (XSP1) HepG2 Assay for frog Androgen Receptor (AR) (AID 2283770)
# Procedure: ATG_XSP1_multi-species_TRANS is a cell-based, multiplexed assay created by modifying the existing Attagene TRANS-FACTORIAL system to include a panel of nuclear receptors from some or all the following species: human (Homo sapiens), mouse (Mus musculus), frog (Xenopus laevis), zebrafish (Danio rerio), chicken (Gallus gallus), and turtle (Chrysemys picta). The ECOTOX-FACTORIAL format uses HepG2, a human liver cell line, with measurements taken at 24 hours after chemical dosing in a 24-well plate. Xsp1 included 3 nM 6-alpha-fluorotestosterone to partially stimulate the androgen receptor.ATG_frAR_XSP1 is one of 29 assay components measured or calculated from the ATG_XSP1_multi-species_TRANS assay. It is designed to make measurements of mRNA induction, a form of inducible reporter, as detected with fluorescence intensity signals by Reverse transcription polymerase chain reaction (RT-PCR) and Capillary electrophoresis technology.The assay endpoint ATG_frAR_XSP1 was analyzed in the positive analysis fitting direction relative to DMSO as the negative control and baseline of activity. Using a type of inducible reporter, measures of mRNA for gain-of-signal activity can be used to understand the reporter gene at the transcription factor-level as they relate to the gene AR. Furthermore, this assay endpoint can be referred to as a primary readout, because this assay has produced multiple assay endpoints where this one serves a reporter gene function. To generalize the intended target to other relatable targets, this assay endpoint is annotated to the nuclear receptor intended target family, where the subfamily is steroidal.
# Human liver HepG2 cells are transiently transfected with multiple reporter transcription units (MRTUs) in 6-well plates using FuGene 6 reagent (Roche; 3 ml FuGene/1 mg DNA). The MRTU constructs are regulated by a cis-regulating element (promoter). […] A major difference between the CIS and TRANS system is that in CIS activities of endogenous TFs are measured, whereas the TRANS assay evaluates changes in activities of exogenous, chimeric NR-Gal4 proteins. […] At the end of 24 hour incubation, total RNA was isolated using TriZol reagent (Invitrogen). The isolated RNA is then reverse-transcribed using oligo(dT) primer and Mo-MLV reverse transcriptase (Invitrogen) with DNAse I (Ambion) treatment for 30 min. The one-tenth of the produced cDNA was amplified by PCR using Taq DNA polymerase (Invitrogen) and two reporter sequence-specific primers. The PCR products were fluorescently labeled by primer extension with 6-arboxyfluorescein (6-FAM) 5'-labeled reporter sequence-specific primer (2 min at 95 C, 20 s at 68 C and 10 min at 72 C) and these products were digested with 5U of HpaI (New England Biolabs) for 2h at 37 C. The fragments were purified using Qiaquick PCR columns (Qiagen), analyzed on an ABI 3130xL genetic analyzer (Applied Biosystems) with peak positions identified by using a set of X-rhodamine (ROX)-labeled MapMarker1000 molecular weight standards (BioVentures). The raw capillary electrophoresis data was processed using Attagraph software (Attagene).
# [3] = system: zebrafish Androgen Receptor (AR), gene 100005148; assay: ATG_zfAR_XSP1: Attagene TRANS-FACTORIAL Multi-Species (XSP1) HepG2 Assay for zebrafish Androgen Receptor (AR) (AID 2283771)
# Procedure, shortened: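 Gain-of-signal versus DMSO was measured as reporter transcripts quantified by RT-PCR, fluorescent labelling and capillary electrophoresis after 24 h chemical exposure. The cells were HepG2 expressing a chimeric zebrafish AR-GAL4, co-stimulated with 3 nM 6-alpha-fluorotestosterone.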
# [4] = system: frog Estrogen Receptor (ESR1), gene 398734; assay: ATG_frER1_XSP1: Attagene TRANS-FACTORIAL Multi-Species (XSP1) HepG2 Assay for frog Estrogen Receptor (ESR1) (AID 2283777)
# Procedure, shortened: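 HepG2 cells transiently transfected with GAL4-UAS reporter units and frog ER–Gal4 chimera were dosed for 24 h with 3 nM 6-alpha-fluorotestosterone present. Reporter mRNA was measured by RT-PCR and capillary electrophoresis; gain of signal fitted versus DMSO.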
# [5] = target: Estrogen receptor (Homo sapiens) (UniProt P03372); assay: ATG_hERa_XSP1: Attagene TRANS-FACTORIAL Multi-Species (XSP1) HepG2 Assay for human Estrogen Receptor (ESR1) (AID 2283780)
# Procedure, shortened: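 Reporter transcripts from multiplexed GAL4-UAS units driven by NR-Gal4 chimeras in transiently transfected HepG2 were measured by RT-PCR with capillary electrophoresis 24 h post-dose, with 3 nM 6-alpha-fluorotestosterone present; gain-of-signal relative to DMSO.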
# [6] = system: turtle Estrogen Receptor (ESR1), gene 101933533; assay: ATG_trERa_XSP1: Attagene TRANS-FACTORIAL Multi-Species (XSP1) HepG2 Assay for turtle Estrogen Receptor (ESR1) (AID 2283781)
# Procedure, shortened: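 Transactivation measured 24 h post-dose as reporter mRNA (RT-PCR, fluorescent capillary electrophoresis) from an NR-Gal4 turtle ER construct in HepG2. Medium included 3 nM 6-alpha-fluorotestosterone; increase over DMSO fitted.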
# [7] = system: turtle Androgen Receptor (AR), gene 101947425; assay: ATG_trAR_XSP1: Attagene TRANS-FACTORIAL Multi-Species (XSP1) HepG2 Assay for turtle Androgen Receptor (AR) (AID 2283786)
# Procedure, shortened: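 Partial androgen stimulation is provided by 3 nM 6-alpha-fluorotestosterone in a multi-species trans-factorial panel expressing a turtle AR–GAL4 fusion in HepG2. After 24 h, reporter mRNA is measured by RT-PCR and capillary electrophoresis and fitted upward against DMSO.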
# [8] = target: Luciferin 4-monooxygenase (Photinus pyralis) (UniProt P08659); assay: CCTE_Simmons_QuantiLum_inhib_2: CCTE's Firefly Luciferase Inhibition Assay, Simmons Lab (AID 2283767);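 as to AC50: potency for inhibitors that lower luciferase luminescence relative to DMSO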
# Procedure, shortened: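 Eight-point titrations of each chemical, 5 nM–87.5 uM final in 0.5% DMSO, were run in three biological replicates against recombinant luciferase for 30 min at 37C. Bioluminescence signal loss, read on reagent injection, gave the inhibition endpoint.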
# [9] = ACEA_AR_agonist_AUC_viability: ACEA Biosciences xCELLigence Real-Time Cell Analysis on Androgen Receptor Agonism for Viability (AID 2283775);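 as to AC50: viability read 80 hours after compound addition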
# Procedure, shortened: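 Viability endpoint from xCELLigence impedance in 22Rv1 prostate cells at 80 h. Eight-point series, 100 uM maximum final.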
# [10] = ACEA_ER_AUC_viability: ACEA Biosciences xCELLigence Real-Time Cell Analysis on Estrogen Receptor Agonism for Viability (AID 2283782);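 also: hit means loss of impedance signal meaning reduced cell growth or viability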
# Procedure, shortened: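 Viability endpoint: reduced impedance area under the curve relative to DMSO, recorded by real-time electrode sensing over ~80 h of continuous exposure. Duplicate plates of T47D in hormone-depleted medium; eight concentrations, 1:4 dilutions, 100 uM maximum.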
# [11] = ACEA_AR_antagonist_AUC_viability: ACEA Biosciences xCELLigence Real-Time Cell Analysis on Androgen Receptor Antagonism for Viability (AID 2283776);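 also: 22Rv1 human prostate cancer cells growing on impedance electrode plates; area under impedance growth curve at 80 h after dosing as viability; hits lower the growth signal relative to DMSO meaning cytotoxicity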
# Procedure, shortened: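 Impedance read-out (RT-CES): area under growth curve at 80 h post-dose, loss of signal scored vs DMSO baseline. 22Rv1 cells; 8-pt 1:4 series, top 100 uM final, ≤0.5% DMSO; biological duplicate.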
# AR (gene 367) = AR (gene 367) (UniProt P10275); assay: ACEA_AR_agonist_80hr: ACEA Biosciences xCELLigence Real-Time Cell Analysis on Androgen Receptor Agonism for Proliferation (AID 2283783);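 also: hits increase impedance growth signal above DMSO baseline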
# Procedure, shortened: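 Eight concentrations, 1:4 serial dilution from a 100 uM final top, in biological duplicate. Impedance-based real-time growth of 22Rv1 cells after overnight baseline, recorded hourly and read at 80 hours. Controls: testosterone, MG132, assay media.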
# [12] = STM_H9_NormalizedViability: Cytotoxicity Assessment at 120 hours in the Stemina devTOX quickPredict H9 human embryonic stem cell (hESC)-based Assay (AID 2283784)
# Procedure, shortened: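 Here, H9 cells received test compound with daily medium renewal. Each plate included methotrexate references (1uM, 5 nM), 0.1% DMSO and media blanks; CellTiter-Fluor RFU was normalized to DMSO.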
structure (smiles),measurement,setting,value
CCCCC(CC)CN1C(=O)C2C3C=CC(C3)C2C1=O (stereo not given),AC50,[1],inconclusive: 182 µM
same,AC50,[2],inconclusive: 62 µM
same,outcome,[3],inactive
same,outcome,[4],inactive
same,AC50,[5],active: 2.7 µM
same,AC50,[6],inconclusive: 172 µM
same,AC50,[7],inconclusive: 168 µM
Cc1[nH]nc2c1N=C(c1ccccc1Cl)c1cc([N+](=O)[O-])ccc1N2,AC50,[8],active: 44.6 µM
CC(C)CCCC(C)(C)O,AC50,[9],inconclusive: 0.134 µM
CCCCOC(=O)CCCCCCCC(=O)OCCCC,outcome,[9],inactive
C=CCOC(Cn1ccnc1)c1ccc(Cl)cc1Cl (stereo not given),AC50,[1],inconclusive: 179 µM
same,AC50,[2],inconclusive: 27.8 µM
same,AC50,[6],active: 26.7 µM
same,AC50,[10],active: 50 µM
same,AC50,[7],inconclusive: 59.7 µM
O=C(O)c1ccc(C(=O)O)cc1,AC50,[9],inconclusive: 0.0421 µM
Sc1nc2ccccc2s1,AC50,[9],inconclusive: 16.6 µM
COc1cc(CCC(=O)CC(=O)CCc2ccc(O)c(OC)c2)ccc1O,AC50,[9],active: 68.5 µM
CCCCCCCC/C=C\CCCCCCCC(=O)N(C)CC(=O)O,outcome,[8],inactive
same,AC50,[9],inconclusive: 3.3 µM
same,AC50,[10],active: 83.4 µM
Nc1cccc(N)c1,AC50,[8],inconclusive: 0.0105 µM
same,AC50,[9],inconclusive: 7.04 µM
same,AC50,[10],inconclusive: 50 µM
Cc1ccc(C)c(S(=O)(=O)O)c1,AC50,[9],inconclusive: 0.0142 µM
same,outcome,[9],inactive
same,AC50,[11],inconclusive: 16.6 µM
same,outcome,[10],inactive
Cc1nc(-c2ccccn2)ncc1C(=O)Nn1cc(C)c2cc(F)ccc21,AC50,[9],inconclusive: 0.000678 µM
same,AC50,[11],inconclusive: 0.00376 µM
same,AC50,[10],inconclusive: 50 µM
same,AC50,AR (gene 367),active: 0.000427 µM
same,outcome,[12],inactive
CCCCOC(=O)C(C)O (stereo not given),outcome,[9],inactive
F[Si-2](F)(F)(F)(F)F,AC50,[9],inconclusive: 16.6 µM
same,AC50,[11],inconclusive: 0.0189 µM
same,AC50,[10],inconclusive: 50 µM
same,outcome,AR (gene 367),inactive
CCOC(=O)CCC(=O)OCC,AC50,[9],inconclusive: 9.92 µM
same,AC50,[11],inconclusive: 0.000608 µM
same,AC50,[10],inconclusive: 3.57 µM
OCC1CCCO1 (stereo not given),AC50,[9],inconclusive: 0.525 µM
same,AC50,[11],inconclusive: 16.8 µM
same,AC50,[10],inconclusive: 50 µM
same,AC50,AR (gene 367),active: 0.585 µM

# Exported with bars between the fields: part of the list above
structure (smiles) | measurement | setting | value
CCCCC(CC)CN1C(=O)C2C3C=CC(C3)C2C1=O (stereo not given) | AC50 | [1] | inconclusive: 182 µM
same | AC50 | [2] | inconclusive: 62 µM
same | outcome | [3] | inactive
same | AC50 | [6] | inconclusive: 172 µM
CC(C)CCCC(C)(C)O | AC50 | [9] | inconclusive: 0.134 µM
C=CCOC(Cn1ccnc1)c1ccc(Cl)cc1Cl (stereo not given) | AC50 | [2] | inconclusive: 27.8 µM
same | AC50 | [6] | active: 26.7 µM
CCCCCCCC/C=C\CCCCCCCC(=O)N(C)CC(=O)O | outcome | [8] | inactive
same | AC50 | [10] | active: 83.4 µM
Nc1cccc(N)c1 | AC50 | [10] | inconclusive: 50 µM
Cc1ccc(C)c(S(=O)(=O)O)c1 | outcome | [9] | inactive
CCOC(=O)CCC(=O)OCC | AC50 | [10] | inconclusive: 3.57 µM
OCC1CCCO1 (stereo not given) | AC50 | [9] | inconclusive: 0.525 µM
